Data taken from ChEMBL document CHEMBL3988442, “University of Dundee, Small-Polar-MMV Screening Library” (2021).

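Whole-cell assay for inhibitors of Mycobacterium tuberculosis growth, labelled Cornell in the record; the read-out is not stated. The concentration is filed as 10 mM, unlikely as a test dose, so the dose is not known. Higher means stronger inhibition (inferred from two other growth screens of the library). Of about 53,000 compounds tested this way, about 900 (1.7%) reached 50% or more in at least one test.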

Each number is a percent effect as filed. How 0% and 100% were set is not recorded. Most values in the screen are low, and negative values occur. Compounds were drawn at random from those tested, without regard to their results.

| # | compound | effect |
|---|---|---|
| 1 | `Cc1cc(C2CCCN2Cc2cccc(C(=O)Nc3nccs3)c2)no1` (stereo not given) | 11.59 |
| 2 | `CCOC(=O)Cn1nnnc1-c1ccccc1` | 99.52 |
| 3 | `Cc1ncc2c(n1)CCN(C(=O)Cc1c(C)noc1C)C2` | 4.082 |
| 4 | `CC(C)N(Cc1ccccc1)C(=O)NCCNC(=O)c1cccnc1` | 2.097 |
| 5 | `CN1CCCCC1Cc1nc(Cc2cccc(F)c2)no1` (stereo not given) | 4.097 |
| 6 | `[H][C@]12CN(S(C)(=O)=O)CCN1C[C@H](c1ccccc1)[C@H]2C(=O)OCC` | 12.34 |
| 7 | `CC1=Nc2c(c(=O)[nH]n2C2CCCCC2)C(c2cccnc2)S1` (stereo not given) | 41.81 |
| 8 | `[H][C@@]12C[C@H](C(=O)Nc3cccnc3)[C@@]([H])(CN(C(=O)NC3CCCC3)C1)O2` | -1.57 |
| 9 | `Cn1nccc1-c1cc(C2CCN(S(C)(=O)=O)CC2)ccn1` | -13.55 |
| 10 | `Cc1ccccc1S(=O)(=O)Cc1nsc(N(C)C)n1` | 15.71 |
| 11 | `COCCNC(=O)NCc1cc(-c2ccncc2)n(C2CCCC2)n1` | 11.17 |
| 12 | `[H][C@]12CN(Cc3ccco3)C[C@@]1([H])OCCN(S(=O)(=O)C1CC1)C2` | 9.062 |
| 13 | `[H][C@]12CC[C@]([H])(CN(Cc3cscn3)C1)N(C(=O)c1nc(C)c[nH]1)C2` | -22.56 |
| 14 | `Cc1nc2ccc(C(=O)N(CCC#N)CCC#N)cc2nc1C` | 23.22 |
| 15 | `OCCNc1nccc(-c2cn3nccc3nc2C2CCCCC2)n1` | 15.49 |
| 16 | `CNC(=O)Cc1noc(Cc2cccc(Br)c2)n1` | 0.01585 |
| 17 | `CCOCCn1nnc(C2(NC(=O)c3ccccc3)CCCC2)n1` | 15.58 |
| 18 | `CC(C)(Oc1ccc(C(N)=O)cc1)C(=O)N(CCC#N)C1CC1` | -9.388 |
| 19 | `O=C(Nc1cccc(Cn2cccn2)c1)N1CCCC(N2CCCC2)C1` (stereo not given) | -2.366 |
| 20 | `Cn1ccnc1CN1CCC(c2nc3ccccc3n2C)CC1` | -13.95 |
| 21 | `COCC(=O)N1CCN(C(C)c2ncc(-c3ccccc3)o2)CC1` (stereo not given) | 3.297 |
| 22 | `Cn1cc(N2CC3(CCN(S(=O)(=O)C4CC4)C3)CC2=O)cn1` (stereo not given) | -4.337 |
| 23 | `CN(CCS(C)(=O)=O)C1CCCN(Cc2noc(C3CC3)n2)C1` (stereo not given) | -19.51 |
| 24 | `COc1ccc(-c2cc3cccn(CC(=O)N4CCOCC4)c-3n2)cc1` | -10.19 |
| 25 | `Cc1ccc(-c2cc(C(=O)NCCN3CCOCC3)n[nH]2)s1` | 18.16 |
| 26 | `CC(C)NC(=O)NC[C@H]1OC[C@@H](NCc2ccc(S(C)(=O)=O)cc2)[C@@H]1O` | -0.6826 |
| 27 | `CCCNS(=O)(=O)c1ccc(C(=O)NC(CC)c2cnn(C)c2)cc1` (stereo not given) | 14.06 |
| 28 | `COc1cnc(CN2CCN(CC(C)C)C(=O)C2C)cc1O` (stereo not given) | 3.316 |
| 29 | `[H][C@@]12CCN(C(=O)Cc3cccc(O)c3)C[C@]1([H])[C@@H](c1ccccc1)CN2C` | 49.35 |
| 30 | `CCS(=O)(=O)CCCN1CCSCC1c1ccc(Cl)cc1` (stereo not given) | 30.19 |
| 31 | `Cc1cccc(C(=O)NCc2ccc(N3CCCCCC3)nc2)n1` | 8.224 |
| 32 | `COc1ccc(-c2cn3c(n2)CO[C@@H](CNCc2nccn2C)C3)cc1` | -31.61 |
| 33 | `Cc1nc(C(C)C)sc1C(=O)N1CCC(N2CCSCC2)CC1` | 26.91 |
| 34 | `CCNC(=O)CN(CC)C(=O)c1cccc(Nc2cnn(C)c2)c1` | -39.95 |
| 35 | `CCN(Cc1cccc(F)c1)Cn1nc(C)c2c(C)onc2c1=O` | -33.36 |
| 36 | `Cc1cc(N(C)C)nc(N2CCCC2c2ccccn2)n1` (stereo not given) | 10.07 |
| 37 | `Cn1ncc2c1NC(=O)CSC2c1ccccc1Cl` (stereo not given) | -10.3 |
| 38 | `O=C(N1CCC(Nc2cccnn2)CC1)C1(c2ccc(F)cc2)CC1` | 19.66 |
| 39 | `O=C(c1ccnn1-c1ccc2ccccn12)N1CCOCC1` | -0.7236 |
| 40 | `O=C(NCCNC(=O)c1scnc1Cl)c1ccoc1` | -25.48 |
| 41 | `CCn1nnc2c1C(COC)CN(C(=O)Cc1cccs1)C2` (stereo not given) | 26.73 |
| 42 | `COc1ccccc1N1CCC(N2CCOC(C(F)(F)F)C2)CC1` (stereo not given) | 33.33 |
| 43 | `CCn1ccc(-c2cc(C(=O)O)n3ncc(Br)c3n2)n1` | 19.03 |
| 44 | `CCN(CC1CCCO1)C(=O)Nc1cc(C(N)=O)ccc1OC` (stereo not given) | -3.179 |
| 45 | `CS(=O)(=O)NC1CCN(C(=O)NCc2cc[nH]n2)CC1` | -5.12 |
| 46 | `CC(=O)N1CCC(n2ccc(-c3cnc(N4CCOCC4)nc3)n2)CC1` | -49.79 |
| 47 | `O=C(COc1cccc2c1CCC2=O)NCc1ccccc1F` | 15.34 |
| 48 | `CSCC(C)(O)CNS(=O)(=O)c1ccc(F)cc1` (stereo not given) | -3.369 |
| 49 | `CSc1nccc(N2CCN(C)C3(CCNC(=O)CC3)C2)n1` (stereo not given) | 11.33 |
| 50 | `Cc1nc(COCc2cnc3n2CCN(C(=O)C2CC2)C3C)cs1` (stereo not given) | -15.74 |
| 51 | `CC(C)NC(=O)N1CCN(C(=O)c2ccco2)CC2(CC(=O)N(C)C2)C1` (stereo not given) | 14.93 |
| 52 | `[H][C@@]12COC[C@]1(c1nc(C)no1)CN(C(=O)C1CCOCC1)C2` | 12.81 |
| 53 | `O=C(CCc1cc2n(n1)CCN(Cc1ncc[nH]1)C2)N1CCCC1` | -1.329 |
| 54 | `Cc1cnc(CN(Cc2ccc(Cl)s2)C2CCN(C)C2)o1` (stereo not given) | -3.326 |
| 55 | `CN1CCN(S(=O)(=O)c2cccc(S(=O)(=O)C3CCS(=O)(=O)C3)c2)CC1` (stereo not given) | 21.14 |
| 56 | `Cc1cc(CN(Cc2ccccc2)CC(O)c2cccs2)on1` (stereo not given) | 8.185 |
| 57 | `[H][C@@]12CCN(Cc3cc(C)on3)C[C@]1([H])OCCN(c1cccnc1)C2=O` | 8.887 |
| 58 | `COc1cccc(CSc2nnc(C)n2CC(N)=O)c1` | 23.84 |
| 59 | `O=C(Nc1ccc(CCN2CCSCC2)cc1)NC1CC1` | 1.599 |
| 60 | `CC(C)c1cc(COCCCC(=O)O)no1` | 16.06 |
| 61 | `COc1ccc(OCc2cc(C(=O)N3CCOCC3)n[nH]2)c(Cl)c1` | 19.45 |
| 62 | `O=C(O)C(F)(F)F.[H][C@@]12COC[C@H](C(=O)N3CCC(F)CC3)[C@]1([H])CN(C1CCOCC1)C2` | 14.22 |
| 63 | `CC(C)(C)SCC(=O)NCCc1csc(N2CCCC2)n1` | 2.185 |
| 64 | `CCC(C)c1cc(C(=O)N(CC(=O)NC)c2cccc(F)c2)on1` (stereo not given) | -12.31 |
| 65 | `c1nc(N2CCCC(Cn3cncn3)C2)c2sccc2n1` (stereo not given) | -7.151 |
| 66 | `Cc1cccc(-c2ccc(C(=O)NCCN3CCOCC3)c(=O)[nH]2)c1` | 10.08 |
| 67 | `[H][C@@]12COC[C@]1(c1nc(C)no1)CN(C(=O)COC1CCCC1)C2` | 1.713 |
| 68 | `CCc1nnc2n1CCN(C(=O)c1cc(C)n(-c3ccccc3)c1C)C2` | -11.91 |
| 69 | `Cc1ccccc1C(CC(=O)N1CCc2sccc2C1)NC(N)=O` (stereo not given) | -7.268 |
| 70 | `[H][C@@]12CS(=O)(=O)C[C@]1([H])N(C(=O)c1ccc(OC)o1)CCN2C(=O)CC` | 3.281 |
| 71 | `CCCSCC(=O)N1CCCC2(CCC(=O)N(CCc3c[nH]cn3)C2)C1` (stereo not given) | 3.025 |
| 72 | `CN(C(=O)Cn1nc(-c2ccccc2F)ccc1=O)C1CCS(=O)(=O)C1` (stereo not given) | 18.26 |
| 73 | `Cn1nc(C2CCN(C(=O)c3cnccn3)C2)cc1CCO` (stereo not given) | -2.301 |
| 74 | `COc1nn(C)cc1C(=O)NCC1(O)CCOCC1` | 17.37 |
| 75 | `CC1(C2CCN(CC(N)=O)CC2)CN(Cc2ccccc2)C(=O)CO1` (stereo not given) | -2.793 |
| 76 | `CC(C)n1c(=O)nc2n1C(=O)N(c1ccc(Cl)cc1)C2` | 22.99 |
| 77 | `COc1cc(C2CC(=O)Nc3c2nc2n3CCCC2)cc(OC)c1O` (stereo not given) | 29.71 |
| 78 | `Cc1nnn2c1COCC(CNC(=O)c1cnoc1C)C2` (stereo not given) | 11.04 |
| 79 | `CCc1nnc2n1CC(CNc1cnc3ccccc3n1)CC2` (stereo not given) | -6.011 |
| 80 | `Cn1ncnc1-c1ccnc(NCc2ccccn2)n1` | -12.17 |
| 81 | `O=C(O)C(F)(F)F.O=C(O)C(F)(F)F.[H][C@@]12CCCO[C@]1([H])[C@@H](Oc1ccccn1)CN2c1nnc(C)s1` | -1.125 |
| 82 | `CC(NC(=O)c1ccc2c(c1)OCC(=O)N2)c1ccccc1F` (stereo not given) | 22.47 |
| 83 | `CC(NC(=O)NCC(C)(C)O)c1ccc(-c2ccncc2)cc1` (stereo not given) | -19.08 |
| 84 | `Cc1nccc(N[C@H]2CN(C(=O)CCN3CCCC3=O)C[C@@H]2C(C)C)n1` | 4.347 |
| 85 | `CC[C@H](C)[C@@H](CO)NC(C)Cc1ccc(F)cc1` (stereo not given in full) | 30.02 |
| 86 | `COCCN(C)C(=O)Cn1cccc(OC)c1=O` | 28.33 |
| 87 | `O=C(NC1CCC1)c1c2c(N3CCCC3)ncnc2n2ccccc12` | 14.09 |
| 88 | `CNC(=O)C1(c2cnccn2)CCCN1C(=O)c1ccc(F)cc1` (stereo not given) | -35.62 |
| 89 | `O=C(Cc1cccs1)N1CCC2(CC1)COCCN2CC1CC1.O=C(O)C(F)(F)F` | -32.7 |

Some entries from above, unchanged:

compound,effect
CS(=O)(=O)NC1CCN(C(=O)NCc2cc[nH]n2)CC1,-5.12
CC(C)c1cc(COCCCC(=O)O)no1,16.06
CC(C)NC(=O)NC[C@H]1OC[C@@H](NCc2ccc(S(C)(=O)=O)cc2)[C@@H]1O,-0.6826
Cc1ccccc1C(CC(=O)N1CCc2sccc2C1)NC(N)=O (stereo not given),-7.268
CCN(Cc1cccc(F)c1)Cn1nc(C)c2c(C)onc2c1=O,-33.36
Cc1nc2ccc(C(=O)N(CCC#N)CCC#N)cc2nc1C,23.22